{
  "sequences": {"note": "Chains of the proteins cited; added tags and fusions are not shown. Lines headed by an entry give the natural chain unless they say otherwise; changes in a name come on top.", "UniProt P18054": "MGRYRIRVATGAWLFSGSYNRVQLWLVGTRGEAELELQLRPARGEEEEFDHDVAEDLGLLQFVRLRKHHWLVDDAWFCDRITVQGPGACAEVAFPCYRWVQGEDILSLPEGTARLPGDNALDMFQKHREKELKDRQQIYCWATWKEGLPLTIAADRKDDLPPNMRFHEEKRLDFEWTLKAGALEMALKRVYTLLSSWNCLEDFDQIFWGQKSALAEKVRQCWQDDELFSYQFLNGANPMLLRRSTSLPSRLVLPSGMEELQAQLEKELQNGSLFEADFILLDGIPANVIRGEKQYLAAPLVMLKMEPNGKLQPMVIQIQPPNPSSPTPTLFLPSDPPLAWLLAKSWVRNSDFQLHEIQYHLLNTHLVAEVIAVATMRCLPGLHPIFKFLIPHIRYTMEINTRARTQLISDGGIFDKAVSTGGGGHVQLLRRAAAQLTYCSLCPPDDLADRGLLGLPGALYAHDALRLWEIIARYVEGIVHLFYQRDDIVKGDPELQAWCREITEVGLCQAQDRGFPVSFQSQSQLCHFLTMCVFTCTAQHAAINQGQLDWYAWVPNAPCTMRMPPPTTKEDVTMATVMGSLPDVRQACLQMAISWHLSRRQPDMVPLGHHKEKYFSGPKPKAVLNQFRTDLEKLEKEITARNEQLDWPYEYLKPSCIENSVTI"},
  "source": "PubChem BioAssay AID1671190",
  "about": "(National Center for Advancing Translational Sciences (NCATS), 2021)",
  "note": "In all, about 580,000 compounds went through this assay and about 6,100 (1.1%) were called active. This list was built around the results that the source calls inconclusive (neither active nor inactive); the mix of calls is not that of the screen. The call rests on the fitted dose curve; in most records, active means well fitted inhibition curve with a large enough effect; inconclusive means small, poorly fitted or top-dose-only effect, or another doubt; inactive means no such curve, though single readings can be large or run the other way. Potencies beside an inconclusive call are fits to weak or partial responses and may not hold up. On the % scale 0 is the no-effect control and ±100 the full control effect; potency means the concentration at half of the fitted maximal effect.",
  "data": [
    {"target": "Polyunsaturated fatty acid lipoxygenase ALOX12 (Homo sapiens) (UniProt P18054)", "assay": "Primary qHTS assay for inhibitors of human arachidonate 12S-lipoxygenase (ALOX12): Round 2", "details": "purified 12hLO, xylenol orange hydroperoxide absorbance; activity change, negative = inhibition: at 108 µM (top of the series) unless noted", "summary_of_the_method": "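Hydroperoxide product was detected by ferrous iron/xylenol orange as the 573 to 405 nm absorbance ratio. Arachidonic acid at 40 uM (final) was turned over for 30 min at room temperature by 150 nM human 12hLO, pH 7.0 Hepes buffer, after 15 min compound preincubation.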", "values": [
      {"compound": "CCOC(=O)C1=C(O)/C(=C/c2ccc(OCC(=O)O)c(OCC)c2)SC1=Nc1ccc(C)cc1", "Potency": "inconclusive: 70.8 µM [inhibitor, partial curve, poor fit]"},
      {"compound": "COc1ccc(Oc2ncc3nc(CCc4ccccc4)c(=O)n(CCC#N)c3n2)cc1", "activity change, negative = inhibition": "inactive: 0%"},
      {"compound": "O=C1CCCN1CCCN1C(=O)[C@@H]2C[C@@H](O)CN2C2(CN(Cc3ccc(OC(F)(F)F)cc3)C2)C1=O", "Potency": "inconclusive: 28.2 µM [inhibitor, partial curve]"},
      {"compound": "O=[N+]([O-])c1ccc(O)c(/C=N/n2c(-c3ccccc3)n[nH]c2=S)c1", "Potency": "inconclusive: 4.47 µM [inhibitor, full curve, poor fit]"},
      {"compound": "Cc1[nH]n(-c2ccc(Cl)c(Cl)c2)c(=O)c1CCO", "Potency": "inconclusive: 50.1 µM [inhibitor, partial curve, poor fit]"},
      {"compound": "CCCCCCCCN1C(=O)[C@H](CC(=O)N2CCSCC2)C[C@@]2(C(=O)OC)CCCCC=C12", "Potency": "inconclusive: 70.8 µM [inhibitor, partial curve, poor fit]"},
      {"compound": "CCC(C)Sc1ccc([C@@H]2[C@@H]3C(=O)N(CC)C(=O)[C@@H]3[C@]3(C(=O)OC)CCCCN23)cc1OC", "note": "(stereo partly specified)", "Potency": "inconclusive: 39.8 µM [inhibitor, partial curve, poor fit]"},
      {"compound": "C#CCOCCOCCOCCNc1nc(N2CCN(C(=O)[C@H](C)n3cc(CCC(=O)O)nn3)CC2)nc(N2CCN(C(=O)[C@H](Cc3ccc(O)cc3)n3cc(CCO)nn3)CC2)n1", "Potency": "inconclusive: 17.8 µM [inhibitor, full curve]"},
      {"compound": "Cc1noc(C(=O)Nc2ccccc2C(F)(F)F)c1Cl", "activity change, negative = inhibition": "inactive: -3.51%"},
      {"compound": "O=C(CSc1nc2ccc(NC(=O)C34CC5CC(CC(C5)C3)C4)cc2s1)Nc1ccc(F)cc1", "activity change, negative = inhibition": "inactive: -3.84%"},
      {"compound": "CC(/C=N/n1c(-c2cccnc2)n[nH]c1=S)=C\\c1ccco1", "Potency": "inconclusive: 3.98 µM [inhibitor, full curve, poor fit]"},
      {"compound": "Cc1ccc(C)c2c(N)c3c(nc12)CCCCC3", "note": "(tested in a mixture with another compound)", "activity change, negative = inhibition": "inactive: 0.456%"},
      {"compound": "CCOC(=O)C1CCN(S(=O)(=O)c2cc(-c3onc(C)c3C)ccc2C)CC1", "activity change, negative = inhibition": "inactive: -9.41%"},
      {"compound": "COC(=O)c1cc2c(c3c4ccccc4n(S(=O)(=O)c4ccc(C)cc4)c13)C(=O)N(CC(C)C)C2", "Potency": "inconclusive: 44.7 µM [inhibitor, partial curve]"},
      {"compound": "NS(=O)(=O)c1ccc(CNC(=O)c2cc(-c3cccs3)nc3ccccc23)cc1", "Potency": "inconclusive: 44.7 µM [inhibitor, partial curve, poor fit]"},
      {"compound": "Cc1sc(/N=C/c2ccc(Br)cc2)c(C#N)c1C", "Potency": "active: 17.8 µM"},
      {"compound": "O=C(Nc1ccc(OCC(=O)N2CCC(Cc3ccccc3)CC2)cc1)c1ccco1", "Potency": "inconclusive: 89.1 µM [inhibitor, single point]"},
      {"compound": "COc1ccc(C(=O)/C=C/c2ccc(OCC#N)c(OC)c2)cc1", "Potency": "inconclusive: 141 µM [inhibitor, partial curve, poor fit]"},
      {"compound": "CCN1C(=O)/C(=C\\C=C\\c2ccccc2[N+](=O)[O-])SC1=S", "Potency": "inconclusive: 50.1 µM [inhibitor, partial curve, poor fit]"},
      {"compound": "O=C(Cc1ccc(Br)cc1)N/N=C/c1ccc(-c2cccc(C(=O)O)c2)o1", "activity change, negative = inhibition": "inactive: 0%"},
      {"compound": "COc1ccc(-c2ccc(C(=O)N3CCc4c(cnc(C)c4CNS(=O)(=O)N(C)C)C3)o2)cc1", "Potency": "inconclusive: 79.4 µM [inhibitor, partial curve, poor fit]"},
      {"compound": "O=C(NC1CCN(C(=O)N2c3ccccc3Sc3ccccc32)CC1)c1ccccc1Cl", "Potency": "inconclusive: 44.7 µM [inhibitor, partial curve, poor fit]"},
      {"compound": "Cc1ccc(COc2ccc(CNC3CC3)cc2)cc1", "Potency": "inconclusive: 100 µM [inhibitor, partial curve, poor fit]"},
      {"compound": "O=C(CN1CCN(c2ccc(O)cc2)CC1)N(Cc1cccs1)C1CCS(=O)(=O)C1", "note": "(stereo unspecified)", "Potency": "inconclusive: 100 µM [inhibitor, single point]"},
      {"compound": "COc1ccc(C(=O)C(C)OC(=O)c2nn(C)c(=O)c3ccccc23)cc1", "note": "(stereo unspecified)", "Potency": "inconclusive: 141 µM [inhibitor, partial curve, poor fit]"},
      {"compound": "O=C1Nc2ccccc2CN(Cc2ccccc2)C12CCNCC2", "Potency": "inconclusive: 3.2 µM [inhibitor, single point]"},
      {"compound": "COCCn1c(C)cc(O)c(C(c2ccccc2)N2CCC(C)CC2)c1=O", "note": "(stereo unspecified)", "Potency": "inconclusive: 112 µM [inhibitor, partial curve, poor fit]"},
      {"compound": "CCOc1ccc2c(c1)c1nnc(SCC3CCCO3)nc1n2C", "note": "(stereo unspecified)", "Potency": "inconclusive: 89.1 µM [inhibitor, partial curve, poor fit]"},
      {"compound": "CC(O)(c1ccc(F)c(F)c1)c1nc(/C=C/c2ccccc2)cs1", "note": "(stereo unspecified)", "Potency": "inconclusive: 44.7 µM [inhibitor, partial curve, poor fit]"},
      {"compound": "Cc1cccc(Nc2nc3ccccc3nc2NS(=O)(=O)c2cccc3nsnc23)c1", "Potency": "inconclusive: 7.08 µM [inhibitor, partial curve, poor fit]"},
      {"compound": "C=CCn1c(C(CC)CC)nc2ccccc21", "activity change, negative = inhibition": "inactive: 184%"},
      {"compound": "Cc1ccc(CN(C(=O)c2cc(=O)c3cc(Cl)c(C)cc3o2)c2ccccn2)o1", "Potency": "active: 25.1 µM"},
      {"compound": "CCc1ccccc1Nc1cc(C(=O)NCc2ccc(C)cc2)c2ccccc2n1", "Potency": "inconclusive: 56.2 µM [inhibitor, partial curve, poor fit]"},
      {"compound": "c1cc(-c2nn[nH]n2)cs1", "Potency": "inconclusive: 2.51 µM [inhibitor, full curve]"},
      {"compound": "CC1(C(=O)NCc2ccccc2)CSCC(=O)N1CCOc1ccccc1", "note": "(stereo unspecified)", "Potency": "inconclusive: 79.4 µM [inhibitor, partial curve, poor fit]"},
      {"compound": "O=C(c1c2c(nc3ccccc13)C(=O)N(C1CCCCC1)C2)N1CCN(c2ccc(F)cc2)CC1", "Potency": "inconclusive: 112 µM [inhibitor, single point]"},
      {"compound": "CCOC(=O)c1c(NC(=O)COC(=O)c2ccc(C)s2)sc2c1CC(C)(C)NC2(C)C", "Potency": "inconclusive: 39.8 µM [inhibitor, partial curve, poor fit]"},
      {"compound": "CC(=O)O[C@H]1C[C@@H]2CC[C@@]1(C)C2(C)C", "activity change, negative = inhibition": "inactive: -0.876% [at 176 µM]"},
      {"compound": "O=C(COc1ccccc1Cl)N1CCc2ccccc21", "Potency": "inconclusive: 126 µM [inhibitor, partial curve, poor fit]"},
      {"compound": "COc1cccc(C(=O)NNc2c3ccccc3nc3ccccc23)c1", "Potency": "inconclusive: 50.1 µM [inhibitor, partial curve, poor fit]"},
      {"compound": "CCOC(=O)C1=C(C)N=c2s/c(=C\\C(=O)OC)c(=O)n2C1c1ccc(OC)cc1", "note": "(stereo unspecified)", "Potency": "inconclusive: 79.4 µM [inhibitor, partial curve, poor fit]"},
      {"compound": "O=C(O)C(Cc1c[nH]c2ccccc12)NS(=O)(=O)c1ccc(Br)cc1", "note": "(stereo unspecified)", "Potency": "inconclusive: 50.1 µM [inhibitor, partial curve, poor fit]"},
      {"compound": "N#CC1=C(Nc2ccccc2Cl)SC(c2ccccc2O)NC1=O", "note": "(stereo unspecified)", "Potency": "inconclusive: 39.8 µM [inhibitor, single point]"},
      {"compound": "Cc1cc(C)cc(Nc2ncnc3c2nc2n3CCCC2)c1", "Potency": "inconclusive: 126 µM [inhibitor, partial curve, poor fit]"},
      {"compound": "Cc1[nH]c2c(Br)cccc2c1[C@H]1[C@@H](CC#N)C1(C)C", "Potency": "inconclusive: 100 µM [inhibitor, partial curve, poor fit]"},
      {"compound": "O=[N+]([O-])c1ccccc1/C=N/N1CCN(c2ccc(Cl)cc2)CC1", "Potency": "inconclusive: 35.5 µM [inhibitor, partial curve, poor fit]"},
      {"compound": "O=Cc1cccc(-c2ccc(C(=O)O)o2)c1", "activity change, negative = inhibition": "inactive: 3.04% [at 12.5 µM]"},
      {"compound": "CCCC(=O)Nc1nc2ccc(NC(=O)c3c(F)c(F)c(OC)c(F)c3F)cc2s1", "Potency": "inconclusive: 79.4 µM [inhibitor, partial curve, poor fit]"},
      {"compound": "CCc1ccc(/C=N/NC(=O)C(O)(c2ccccc2)c2ccccc2)cc1", "activity change, negative = inhibition": "inactive: -14.5%"},
      {"compound": "CCN(CC)C(=O)Cn1cc(C(=O)C2CC2)c2ccccc21", "activity change, negative = inhibition": "inactive: 14.7%"},
      {"compound": "CCOc1ccc(NC(=O)CSc2oc(-c3ccco3)nc2S(=O)(=O)c2ccc(C)cc2)cc1", "Potency": "inconclusive: 50.1 µM [inhibitor, partial curve]"},
      {"compound": "CS(=O)(=O)NN1C(=O)c2ccccc2NC1c1cccs1", "note": "(stereo unspecified)", "Potency": "inactive"},
      {"compound": "Cc1cc(SCc2cc(Cl)c3c(c2)OCCCO3)nc(C)n1", "Potency": "inconclusive: 35.5 µM [inhibitor, partial curve, poor fit]"},
      {"compound": "CC(C)CCNC(=O)CN1C(=O)CCn2nc(-c3cn(C)c4ccccc34)cc21", "Potency": "inconclusive: 70.8 µM [inhibitor, partial curve, poor fit]"},
      {"compound": "O=C(CN1C(=O)NC2(CCOCC2)C1=O)Nc1cc(F)cc(F)c1", "activity change, negative = inhibition": "inactive: 24.9%"},
      {"compound": "Cc1cc(Oc2cc(NN3CCCCC3)c([N+](=O)[O-])cc2[N+](=O)[O-])c(C(=O)c2ccccc2)cc1Cl", "activity change, negative = inhibition": "inactive: -2.01%"},
      {"compound": "CCCCn1c(SCc2cccc([N+](=O)[O-])c2)nc2ccsc2c1=O", "activity change, negative = inhibition": "inactive: 2.17%"},
      {"compound": "CCOC(=O)C1(C)/C(=N/Nc2ccccc2OC)C(=O)C(=O)N1c1ccccc1", "note": "(stereo unspecified)", "Potency": "inconclusive: 44.7 µM [inhibitor, partial curve, poor fit]"},
      {"compound": "CCOc1ccc(S(=O)(=O)NCCc2csc(-c3ccc(Cl)cc3)n2)cc1", "Potency": "inconclusive: 50.1 µM [inhibitor, partial curve, poor fit]"},
      {"compound": "CC(C)(C)OC(=O)N1CCN(C(C(=O)O)c2c[nH]c3cc(Cl)ccc23)CC1", "note": "(stereo unspecified)", "Potency": "inconclusive: 100 µM [inhibitor, partial curve, poor fit]"},
      {"compound": "COc1ccc2cc(C(=O)N3CCC(C)(C(=O)NCc4ccccc4)CC3)[nH]c2c1", "Potency": "inconclusive: 10 µM [inhibitor, partial curve, poor fit]"}
    ]}
  ]
}
